In paper PMC11111408, “Concurrent inhibition of oncogenic and wild-type RAS-GTP for cancer therapy” (Nature, 2024):
This continues a long series; more values of the same kind are listed elsewhere.

Tested on: PRISM DNA-barcoded human tumour cell lines
Test: PRISM pooled cell viability assay;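 also: 8 threefold dilutions from 10 µM with 5 days of exposure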
Type: cell-based
Parameters: Area under the curve (AUC): scale not given here
Procedure: Cells were then lysed in TCL mRNA lysis buffer, and then PCR with reverse transcription was performed. Detection of the barcodes and univariate and multivariate analysis was then performed as previously described. Data analysis is described in the Supplementary Methods. Up-to-date code for our analysis is at the github link: https://github.com/cmap/dockerized_mts.
For every gene with non-silent mutations in at least four cell-lines, we compared the AUC values between cells with and without those mutations using a t-test. This analysis was carried out for: (i) the full dataset; (ii) excluding cell lines with non-silent KRAS mutations; and (iii) excluding cell lines that have either KRAS or NRAS non-silent mutations.

`CCn1c(-c2cc(N3CCN(C4CC4)CC3)cnc2[C@H](C)OC)c2c3cc(ccc31)-c1csc(n1)C[C@H](NC(=O)[C@H]1[C@@H]3COC[C@@H]31)C(=O)N1CCC[C@H](N1)C(=O)OCC(C)(C)C2` [RMC-7977] was tested, and the “Area under the curve (AUC)” value (HCC1359_LUNG) was 0.7738, the “PRISM AUC” value (HCC1359_LUNG, KRAS WT) was 0.637 and the “Area under the curve (AUC)” value (HCC1395_BREAST) was 0.7027. The “PRISM AUC” value (HCC1395_BREAST, KRAS WT) was 0.7851, the “Area under the curve (AUC)” value (HCC1419_BREAST) was 0.7199 and the “PRISM AUC” value (HCC1419_BREAST, KRAS WT) was 0.6938. For the same molecule, the “Area under the curve (AUC)” value (HCC1428_BREAST) was 0.7706, the “PRISM AUC” value (HCC1428_BREAST, KRAS WT) was 0.6968 and the “Area under the curve (AUC)” value (HCC1438_LUNG) was 0.9076. For the same molecule, the “Area under the curve (AUC)” value (HCC1806_BREAST) was 0.8434, the “PRISM AUC” value (HCC1806_BREAST, KRAS WT) was 0.6257 and the “Area under the curve (AUC)” value (HCC1937_BREAST) was 0.8942. The “PRISM AUC” value (HCC1937_BREAST, KRAS WT) was 0.8028, the “Area under the curve (AUC)” value (HCC1954_BREAST) was 0.6247 and the “PRISM AUC” value (HCC1954_BREAST, KRAS WT) was 0.4883. The “Area under the curve (AUC)” value (HCC2108_LUNG) was 0.5948, the “Area under the curve (AUC)” value (HCC4006_LUNG) was 0.4424 and the “PRISM AUC” value (HCC4006_LUNG, KRAS WT) was 0.2966. The “Area under the curve (AUC)” value (HCSC1_CERVIX) was 0.9755, the “Area under the curve (AUC)” value (HCT15_LARGE_INTESTINE) was 0.8156 and the “Area under the curve (AUC)” value (HCT116_LARGE_INTESTINE) was 0.6195. The “Area under the curve (AUC)” value (HDMB03_CENTRAL_NERVOUS_SYSTEM) was 0.7078, the “Area under the curve (AUC)” value (HDMYZ_HAEMATOPOIETIC_AND_LYMPHOID_TISSUE) was 0.7318 and the “Area under the curve (AUC)” value (HDQP1_BREAST) was 0.5274. The “PRISM AUC” value (HDQP1_BREAST, KRAS WT) was 0.3029, the “Area under the curve (AUC)” value (HEC1A_ENDOMETRIUM) was 0.6698 and the “Area under the curve (AUC)” value (HEC1B_ENDOMETRIUM) was 0.5914. For the same molecule, the “Area under the curve (AUC)” value (HEC1_ENDOMETRIUM) was 0.7812, the “Area under the curve (AUC)” value (HEC6_ENDOMETRIUM) was 0.8337 and the “PRISM AUC” value (HEC6_ENDOMETRIUM, KRAS MUT) was 0.9413. The “Area under the curve (AUC)” value (HEC59_ENDOMETRIUM) was 1, the “PRISM AUC” value (HEC59_ENDOMETRIUM, KRAS WT) was 0.953 and the “Area under the curve (AUC)” value (HEC108_ENDOMETRIUM) was 0.7068. The “PRISM AUC” value (HEC108_ENDOMETRIUM, KRAS WT) was 0.6207, the “Area under the curve (AUC)” value (HEC116_ENDOMETRIUM) was 0.6479 and the “Area under the curve (AUC)” value (HEC151_ENDOMETRIUM) was 0.7673. For the same molecule, the “PRISM AUC” value (HEC151_ENDOMETRIUM, KRAS WT) was 0.5346, the “Area under the curve (AUC)” value (HEC251_ENDOMETRIUM) was 0.603 and the “PRISM AUC” value (HEC251_ENDOMETRIUM, KRAS MUT) was 0.5893. For the same molecule, the “Area under the curve (AUC)” value (HEC265_ENDOMETRIUM) was 0.8822, the “PRISM AUC” value (HEC265_ENDOMETRIUM, KRAS WT) was 0.8298 and the “Area under the curve (AUC)” value (HEL9217_HAEMATOPOIETIC_AND_LYMPHOID_TISSUE) was 0.6808. The “PRISM AUC” value (HEL9217_HAEMATOPOIETIC_AND_LYMPHOID_TISSUE, KRAS WT) was 0.5969, the “Area under the curve (AUC)” value (HEL_HAEMATOPOIETIC_AND_LYMPHOID_TISSUE) was 0.7753 and the “PRISM AUC” value (HEL_HAEMATOPOIETIC_AND_LYMPHOID_TISSUE, KRAS WT) was 0.8357. The “Area under the curve (AUC)” value (HEP3B217_LIVER) was 0.8334, the “PRISM AUC” value (HEP3B217_LIVER, KRAS WT) was 0.8015 and the “Area under the curve (AUC)” value (HEPG2_LIVER) was 0.5208. For the same molecule, the “PRISM AUC” value (HEPG2_LIVER, KRAS WT) was 0.4927, the “Area under the curve (AUC)” value (HEYA8_OVARY) was 0.65 and the “Area under the curve (AUC)” value (HGC27_STOMACH) was 0.7654. For the same molecule, the “PRISM AUC” value (HGC27_STOMACH, KRAS WT) was 0.6479, the “Area under the curve (AUC)” value (HH_HAEMATOPOIETIC_AND_LYMPHOID_TISSUE) was 0.9486 and the “PRISM AUC” value (HH_HAEMATOPOIETIC_AND_LYMPHOID_TISSUE, KRAS WT) was 0.7213. The “Area under the curve (AUC)” value (HKA1_SKIN) was 0.7583, the “Area under the curve (AUC)” value (HKGZCC_BILIARY_TRACT) was 0.3768 and the “Area under the curve (AUC)” value (HLF_LIVER) was 0.6104. For the same molecule, the “PRISM AUC” value (HLF_LIVER, KRAS WT) was 0.5492, the “Area under the curve (AUC)” value (HMC18_BREAST) was 0.3264 and the “Area under the curve (AUC)” value (HOS_BONE) was 0.7412. The “PRISM AUC” value (HOS_BONE, KRAS WT) was 0.7033, the “Area under the curve (AUC)” value (HOTHC_THYROID) was 0.8838 and the “Area under the curve (AUC)” value (HPAC_PANCREAS) was 0.507. For the same molecule, the “Area under the curve (AUC)” value (HPAFII_PANCREAS) was 0.431, the “Area under the curve (AUC)” value (HPBALL_HAEMATOPOIETIC_AND_LYMPHOID_TISSUE) was 1 and the “Area under the curve (AUC)” value (HS294T_SKIN) was 0.8964. For the same molecule, the “PRISM AUC” value (HS294T_SKIN, KRAS WT) was 0.9509, the “Area under the curve (AUC)” value (HS611T_HAEMATOPOIETIC_AND_LYMPHOID_TISSUE) was 0.9844 and the “Area under the curve (AUC)” value (HS683_CENTRAL_NERVOUS_SYSTEM) was 0.6778. The “PRISM AUC” value (HS683_CENTRAL_NERVOUS_SYSTEM, KRAS WT) was 0.6553, the “Area under the curve (AUC)” value (HS729_SOFT_TISSUE) was 0.8586 and the “PRISM AUC” value (HS729_SOFT_TISSUE, KRAS WT) was 0.8632. The “Area under the curve (AUC)” value (HS766T_PANCREAS) was 0.3954, the “PRISM AUC” value (HS766T_PANCREAS, KRAS MUT) was 0.3087 and the “Area under the curve (AUC)” value (HS852T_SKIN) was 0.9207. For the same molecule, the “PRISM AUC” value (HS852T_SKIN, KRAS WT) was 0.8852, the “Area under the curve (AUC)” value (HS939T_SKIN) was 0.9926 and the “PRISM AUC” value (HS939T_SKIN, KRAS WT) was 0.981. The “Area under the curve (AUC)” value (HS944T_SKIN) was 0.6142, the “PRISM AUC” value (HS944T_SKIN, KRAS WT) was 0.2298 and the “Area under the curve (AUC)” value (HSC1_SKIN) was 0.606. For the same molecule, the “Area under the curve (AUC)” value (HSC2_UPPER_AERODIGESTIVE_TRACT) was 0.6073, the “PRISM AUC” value (HSC2_UPPER_AERODIGESTIVE_TRACT, KRAS WT) was 0.4147 and the “Area under the curve (AUC)” value (HSC3_UPPER_AERODIGESTIVE_TRACT) was 0.5697. For the same molecule, the “PRISM AUC” value (HSC3_UPPER_AERODIGESTIVE_TRACT, KRAS WT) was 0.3648, the “Area under the curve (AUC)” value (HSC5_SKIN) was 0.6036 and the “Area under the curve (AUC)” value (HSKTC_OVARY) was 0.9527. For the same molecule, the “Area under the curve (AUC)” value (HT3_CERVIX) was 0.6736, the “Area under the curve (AUC)” value (HT29_LARGE_INTESTINE) was 0.9035 and the “Area under the curve (AUC)” value (HT55_LARGE_INTESTINE) was 0.7332. The “Area under the curve (AUC)” value (HT115_LARGE_INTESTINE) was 0.7054, the “PRISM AUC” value (HT115_LARGE_INTESTINE, KRAS WT) was 0.6096 and the “Area under the curve (AUC)” value (HT144_SKIN) was 0.94. The “Area under the curve (AUC)” value (HT1080_SOFT_TISSUE) was 0.5791, the “PRISM AUC” value (HT1080_SOFT_TISSUE, KRAS WT) was 0.2097 and the “Area under the curve (AUC)” value (HT1197_URINARY_TRACT) was 0.8159. For the same molecule, the “PRISM AUC” value (HT1197_URINARY_TRACT, KRAS WT) was 0.68, the “Area under the curve (AUC)” value (HT1376_URINARY_TRACT) was 0.6186 and the “PRISM AUC” value (HT1376_URINARY_TRACT, KRAS WT) was 0.4962. For the same molecule, the “Area under the curve (AUC)” value (HTMMT_ENDOMETRIUM) was 0.8603, the “Area under the curve (AUC)” value (HT_HAEMATOPOIETIC_AND_LYMPHOID_TISSUE) was 0.7511 and the “Area under the curve (AUC)” value (HUCCT1_BILIARY_TRACT) was 0.4343. For the same molecule, the “Area under the curve (AUC)” value (HUG1N_STOMACH) was 0.8176, the “Area under the curve (AUC)” value (HUH1_LIVER) was 0.7901 and the “Area under the curve (AUC)” value (HUH6_LIVER) was 0.7518. For the same molecule, the “Area under the curve (AUC)” value (HUH7_LIVER) was 0.903, the “Area under the curve (AUC)” value (HUH28_BILIARY_TRACT) was 0.8849 and the “Area under the curve (AUC)” value (HUO9_BONE) was 1. The “Area under the curve (AUC)” value (HUPT3_PANCREAS) was 0.398, the “Area under the curve (AUC)” value (HUPT4_PANCREAS) was 0.3391 and the “Area under the curve (AUC)” value (IALM_LUNG) was 0.4787. For the same molecule, the “Area under the curve (AUC)” value (ICC4_BILIARY_TRACT) was 0.9763, the “Area under the curve (AUC)” value (ICC8_BILIARY_TRACT) was 0.8603 and the “Area under the curve (AUC)” value (ICC9_BILIARY_TRACT) was 0.4855. The “Area under the curve (AUC)” value (ICC10_BILIARY_TRACT) was 0.4866, the “Area under the curve (AUC)” value (ICC12_BILIARY_TRACT) was 0.833 and the “Area under the curve (AUC)” value (ICC137_BILIARY_TRACT) was 0.6696. For the same molecule, the “Area under the curve (AUC)” value (IGR1_SKIN) was 0.8984.
